In publication PMC6851183, “Computational design and characterization of nanobody-derived peptides that stabilize the active conformation of the β2-adrenergic receptor (β2-AR)” (Scientific Reports, 2019):
Results are given in words; binding and its absence hold for the method and conditions named. Some binding calls cover weakened binding; strength is not graded here.

Target: C-terminal Renilla luciferase 8 (RLuc8) tagged HAβ2-AR (β2-AR/RLuc8) (human) (UniProt P07550)
Assay: circular dichroism; lysate of β2-AR/Rluc8-transfected HEK-293 cells preincubated with isoproterenol (1 µM in the legend, 10 µM in the methods), titrated with P3 at 5, 10, 20, 30 µM; PBS pH 7.2, 0.1% DMSO, 25 °C; only the binder purified

B1: P3, nanobody-derived peptide (NDP) of Nb71 (peptide)
peptide: EDTAVYYCNANWDLLSD
For B1, the binding was “binds”.
